{"sequences": {"note": "Chains of the proteins cited; added tags and fusions are not shown. Lines headed by an entry give the natural chain unless they say otherwise; changes in a name come on top.", "UniProt Q6PD74": "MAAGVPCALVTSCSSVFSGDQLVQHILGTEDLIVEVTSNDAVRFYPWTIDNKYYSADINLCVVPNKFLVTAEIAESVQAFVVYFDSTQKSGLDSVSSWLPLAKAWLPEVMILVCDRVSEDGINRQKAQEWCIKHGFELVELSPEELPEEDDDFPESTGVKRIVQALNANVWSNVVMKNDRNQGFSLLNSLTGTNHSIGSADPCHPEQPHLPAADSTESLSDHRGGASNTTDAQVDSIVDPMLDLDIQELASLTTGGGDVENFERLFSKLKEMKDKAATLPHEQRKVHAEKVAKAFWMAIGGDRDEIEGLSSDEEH", "UniProt Q6P1M0": "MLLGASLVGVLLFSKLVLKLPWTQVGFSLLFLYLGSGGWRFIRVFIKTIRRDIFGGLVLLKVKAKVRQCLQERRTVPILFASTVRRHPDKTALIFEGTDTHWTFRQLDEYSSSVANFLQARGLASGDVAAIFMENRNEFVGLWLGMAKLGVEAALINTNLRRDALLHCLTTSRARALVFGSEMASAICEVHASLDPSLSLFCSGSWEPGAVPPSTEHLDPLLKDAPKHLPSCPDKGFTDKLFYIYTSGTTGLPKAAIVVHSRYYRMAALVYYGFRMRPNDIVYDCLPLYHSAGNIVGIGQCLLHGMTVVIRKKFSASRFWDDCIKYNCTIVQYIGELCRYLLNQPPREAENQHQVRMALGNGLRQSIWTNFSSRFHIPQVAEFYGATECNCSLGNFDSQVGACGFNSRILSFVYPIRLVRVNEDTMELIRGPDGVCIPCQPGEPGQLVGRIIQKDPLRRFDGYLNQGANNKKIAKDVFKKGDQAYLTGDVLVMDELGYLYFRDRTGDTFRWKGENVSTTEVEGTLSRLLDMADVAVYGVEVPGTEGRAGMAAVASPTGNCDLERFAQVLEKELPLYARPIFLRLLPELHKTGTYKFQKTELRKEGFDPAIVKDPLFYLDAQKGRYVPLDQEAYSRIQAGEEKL", "UniProt Q6ULP2": "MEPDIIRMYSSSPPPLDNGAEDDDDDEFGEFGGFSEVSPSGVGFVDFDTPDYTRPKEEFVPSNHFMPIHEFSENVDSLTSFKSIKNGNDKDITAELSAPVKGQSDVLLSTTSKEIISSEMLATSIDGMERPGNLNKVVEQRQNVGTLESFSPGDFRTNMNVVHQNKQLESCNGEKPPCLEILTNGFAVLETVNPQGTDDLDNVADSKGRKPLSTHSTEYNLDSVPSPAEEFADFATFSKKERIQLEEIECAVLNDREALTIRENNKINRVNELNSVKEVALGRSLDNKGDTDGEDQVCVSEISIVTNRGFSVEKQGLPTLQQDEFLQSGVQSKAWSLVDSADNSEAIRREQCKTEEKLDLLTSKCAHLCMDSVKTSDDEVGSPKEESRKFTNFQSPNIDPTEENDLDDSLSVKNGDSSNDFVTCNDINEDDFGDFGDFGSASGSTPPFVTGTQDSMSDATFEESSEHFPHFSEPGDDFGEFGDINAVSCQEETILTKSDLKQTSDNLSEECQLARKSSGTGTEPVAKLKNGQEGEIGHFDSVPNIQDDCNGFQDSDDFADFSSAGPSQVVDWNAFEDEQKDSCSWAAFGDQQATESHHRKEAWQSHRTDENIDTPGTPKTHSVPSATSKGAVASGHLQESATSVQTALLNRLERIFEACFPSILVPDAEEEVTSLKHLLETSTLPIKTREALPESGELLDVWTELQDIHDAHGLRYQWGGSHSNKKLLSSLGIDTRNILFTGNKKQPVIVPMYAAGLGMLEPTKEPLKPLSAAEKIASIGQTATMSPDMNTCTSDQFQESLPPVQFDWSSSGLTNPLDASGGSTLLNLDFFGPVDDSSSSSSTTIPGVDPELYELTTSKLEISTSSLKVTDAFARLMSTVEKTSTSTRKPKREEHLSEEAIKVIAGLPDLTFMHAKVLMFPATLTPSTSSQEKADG", "UniProt Q66K74": "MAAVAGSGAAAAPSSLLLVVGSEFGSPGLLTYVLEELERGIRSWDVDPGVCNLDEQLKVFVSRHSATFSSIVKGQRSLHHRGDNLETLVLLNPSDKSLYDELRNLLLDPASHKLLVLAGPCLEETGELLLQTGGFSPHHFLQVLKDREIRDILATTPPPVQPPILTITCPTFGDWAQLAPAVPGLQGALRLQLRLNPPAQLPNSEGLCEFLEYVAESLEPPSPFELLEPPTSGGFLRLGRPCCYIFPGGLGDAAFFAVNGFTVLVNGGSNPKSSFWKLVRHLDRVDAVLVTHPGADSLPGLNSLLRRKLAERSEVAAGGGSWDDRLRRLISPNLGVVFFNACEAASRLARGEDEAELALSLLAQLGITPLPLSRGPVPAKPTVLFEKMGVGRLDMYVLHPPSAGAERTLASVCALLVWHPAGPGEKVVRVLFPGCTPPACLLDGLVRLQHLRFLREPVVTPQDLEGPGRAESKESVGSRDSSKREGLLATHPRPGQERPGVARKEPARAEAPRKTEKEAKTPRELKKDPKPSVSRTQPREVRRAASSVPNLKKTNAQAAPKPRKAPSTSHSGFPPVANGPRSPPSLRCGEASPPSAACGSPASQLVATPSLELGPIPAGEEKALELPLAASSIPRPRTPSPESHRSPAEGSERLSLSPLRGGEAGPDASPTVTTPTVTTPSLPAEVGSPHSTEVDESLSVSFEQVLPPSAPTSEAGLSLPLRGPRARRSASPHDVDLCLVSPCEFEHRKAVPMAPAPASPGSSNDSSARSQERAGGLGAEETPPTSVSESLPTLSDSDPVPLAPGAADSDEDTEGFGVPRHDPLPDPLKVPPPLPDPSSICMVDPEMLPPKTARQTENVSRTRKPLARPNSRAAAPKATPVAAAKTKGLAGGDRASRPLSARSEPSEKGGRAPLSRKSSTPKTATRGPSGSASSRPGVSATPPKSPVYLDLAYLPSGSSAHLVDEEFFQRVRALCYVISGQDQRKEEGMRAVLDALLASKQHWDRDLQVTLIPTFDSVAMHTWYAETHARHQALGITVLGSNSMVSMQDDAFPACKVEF", "UniProt Q69YN4": "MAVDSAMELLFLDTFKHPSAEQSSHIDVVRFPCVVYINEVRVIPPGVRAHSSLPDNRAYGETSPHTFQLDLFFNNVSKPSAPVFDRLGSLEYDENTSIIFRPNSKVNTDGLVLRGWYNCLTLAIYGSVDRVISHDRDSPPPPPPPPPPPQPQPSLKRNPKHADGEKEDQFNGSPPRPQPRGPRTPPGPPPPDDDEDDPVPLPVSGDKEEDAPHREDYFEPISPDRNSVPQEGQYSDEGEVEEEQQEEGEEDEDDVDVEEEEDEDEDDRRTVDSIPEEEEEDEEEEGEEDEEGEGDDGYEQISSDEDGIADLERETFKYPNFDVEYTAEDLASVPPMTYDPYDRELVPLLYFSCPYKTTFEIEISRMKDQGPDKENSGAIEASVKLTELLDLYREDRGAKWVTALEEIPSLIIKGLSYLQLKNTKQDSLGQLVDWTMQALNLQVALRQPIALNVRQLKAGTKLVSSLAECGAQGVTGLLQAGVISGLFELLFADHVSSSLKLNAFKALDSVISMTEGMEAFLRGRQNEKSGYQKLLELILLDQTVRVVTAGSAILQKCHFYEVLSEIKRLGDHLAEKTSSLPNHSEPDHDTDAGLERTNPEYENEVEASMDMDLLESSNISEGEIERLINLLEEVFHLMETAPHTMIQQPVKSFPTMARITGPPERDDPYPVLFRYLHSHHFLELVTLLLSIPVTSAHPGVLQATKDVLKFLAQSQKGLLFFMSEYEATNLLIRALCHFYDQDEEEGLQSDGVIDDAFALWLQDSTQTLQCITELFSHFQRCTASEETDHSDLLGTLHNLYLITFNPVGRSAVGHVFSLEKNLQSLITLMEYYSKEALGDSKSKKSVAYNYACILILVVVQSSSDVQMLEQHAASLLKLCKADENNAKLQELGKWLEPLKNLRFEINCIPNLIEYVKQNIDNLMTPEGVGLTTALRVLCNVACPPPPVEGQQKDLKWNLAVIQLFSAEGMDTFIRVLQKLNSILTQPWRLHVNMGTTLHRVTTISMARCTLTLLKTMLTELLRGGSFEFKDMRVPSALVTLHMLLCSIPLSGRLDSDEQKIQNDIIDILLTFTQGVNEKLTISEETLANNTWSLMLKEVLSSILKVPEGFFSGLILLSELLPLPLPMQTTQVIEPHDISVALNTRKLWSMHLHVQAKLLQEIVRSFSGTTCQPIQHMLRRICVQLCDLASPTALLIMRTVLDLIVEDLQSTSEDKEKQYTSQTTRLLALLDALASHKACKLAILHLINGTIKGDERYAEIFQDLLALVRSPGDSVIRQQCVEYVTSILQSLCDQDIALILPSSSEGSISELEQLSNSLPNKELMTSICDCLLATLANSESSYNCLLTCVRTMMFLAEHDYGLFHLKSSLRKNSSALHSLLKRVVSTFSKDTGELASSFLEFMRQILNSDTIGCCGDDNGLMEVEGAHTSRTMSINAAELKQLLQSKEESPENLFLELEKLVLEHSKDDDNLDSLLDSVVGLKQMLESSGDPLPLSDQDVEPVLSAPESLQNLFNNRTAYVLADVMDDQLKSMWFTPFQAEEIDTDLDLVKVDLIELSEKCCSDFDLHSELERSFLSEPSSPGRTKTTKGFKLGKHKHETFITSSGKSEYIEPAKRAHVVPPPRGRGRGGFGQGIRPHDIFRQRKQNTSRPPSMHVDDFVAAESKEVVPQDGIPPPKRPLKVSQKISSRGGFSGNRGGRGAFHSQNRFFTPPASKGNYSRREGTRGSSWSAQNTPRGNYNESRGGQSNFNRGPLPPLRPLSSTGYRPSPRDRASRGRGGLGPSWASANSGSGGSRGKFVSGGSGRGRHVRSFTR", "UniProt Q6P4F7": "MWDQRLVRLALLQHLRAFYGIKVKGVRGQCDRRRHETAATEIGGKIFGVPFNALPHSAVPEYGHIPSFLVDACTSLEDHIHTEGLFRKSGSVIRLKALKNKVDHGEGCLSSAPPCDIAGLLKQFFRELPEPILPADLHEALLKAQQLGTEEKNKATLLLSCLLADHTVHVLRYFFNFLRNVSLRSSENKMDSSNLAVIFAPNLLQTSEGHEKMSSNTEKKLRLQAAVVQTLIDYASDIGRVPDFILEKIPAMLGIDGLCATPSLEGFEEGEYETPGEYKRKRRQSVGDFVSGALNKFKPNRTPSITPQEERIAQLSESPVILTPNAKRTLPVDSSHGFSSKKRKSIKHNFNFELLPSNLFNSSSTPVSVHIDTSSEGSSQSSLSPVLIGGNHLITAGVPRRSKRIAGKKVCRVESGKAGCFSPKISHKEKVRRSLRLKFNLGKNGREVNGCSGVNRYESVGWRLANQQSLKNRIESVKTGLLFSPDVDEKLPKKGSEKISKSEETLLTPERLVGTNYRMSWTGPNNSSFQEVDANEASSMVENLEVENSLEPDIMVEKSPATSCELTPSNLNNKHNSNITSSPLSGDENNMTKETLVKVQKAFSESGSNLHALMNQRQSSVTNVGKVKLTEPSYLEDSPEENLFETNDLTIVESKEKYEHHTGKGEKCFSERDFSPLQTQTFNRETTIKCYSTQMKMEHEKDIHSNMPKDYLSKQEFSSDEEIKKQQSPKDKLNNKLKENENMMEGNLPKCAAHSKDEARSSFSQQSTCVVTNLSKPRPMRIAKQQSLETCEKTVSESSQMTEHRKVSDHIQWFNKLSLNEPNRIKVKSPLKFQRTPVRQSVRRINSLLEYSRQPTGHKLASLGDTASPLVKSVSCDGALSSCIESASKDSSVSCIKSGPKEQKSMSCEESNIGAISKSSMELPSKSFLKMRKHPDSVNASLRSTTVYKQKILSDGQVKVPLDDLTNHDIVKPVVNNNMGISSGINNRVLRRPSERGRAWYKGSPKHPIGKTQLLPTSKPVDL", "UniProt Q6TDU7": "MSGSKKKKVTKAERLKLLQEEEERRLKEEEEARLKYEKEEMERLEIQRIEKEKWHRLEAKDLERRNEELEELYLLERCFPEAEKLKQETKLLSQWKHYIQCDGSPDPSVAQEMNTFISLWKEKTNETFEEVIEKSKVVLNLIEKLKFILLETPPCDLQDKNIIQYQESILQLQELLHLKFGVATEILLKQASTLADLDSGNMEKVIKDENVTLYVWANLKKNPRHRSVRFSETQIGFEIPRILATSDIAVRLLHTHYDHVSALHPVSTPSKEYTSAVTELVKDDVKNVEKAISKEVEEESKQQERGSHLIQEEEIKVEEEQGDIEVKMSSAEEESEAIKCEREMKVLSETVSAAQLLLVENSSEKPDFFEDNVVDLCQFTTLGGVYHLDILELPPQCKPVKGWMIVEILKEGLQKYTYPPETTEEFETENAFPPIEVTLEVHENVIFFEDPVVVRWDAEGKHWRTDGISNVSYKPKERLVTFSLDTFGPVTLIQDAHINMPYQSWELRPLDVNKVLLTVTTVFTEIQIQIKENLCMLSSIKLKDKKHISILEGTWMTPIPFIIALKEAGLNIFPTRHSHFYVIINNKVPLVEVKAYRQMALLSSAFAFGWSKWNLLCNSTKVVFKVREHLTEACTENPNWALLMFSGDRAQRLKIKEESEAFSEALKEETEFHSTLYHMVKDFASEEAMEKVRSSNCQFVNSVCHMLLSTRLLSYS"}, "source": "the supplement of paper PMC12819154", "about": "“High-throughput peptide-centric local stability assay extends protein–ligand identification to membrane proteins, tissues and bacteria” (Nature Structural & Molecular Biology, 2025)", "note": "This is one part of the list. Most entries show no effect beyond the scatter of the controls.", "data": [{"compound": "Cc1nc(Nc2ncc(C(=O)Nc3c(C)cccc3Cl)s2)cc(N2CCN(CCO)CC2)n1 [dasatinib]", "experiment": "log2 fold change of tryptic peptide abundance, ligand vs vehicle (limited proteolysis) (log2 ratio); higher = more trypsin-susceptible (destabilized)", "conditions": "ligand concentration: 5 uM; sample: K562 cleared lysate", "values": [{"target": "UniProt Q6T423 (peptide sequence: QELEAAQK, peptide start residue: 326)", "log2 fold change": -0.0244}, {"target": "WWC2 (peptide sequence: TTQECPVR, peptide start residue: 1057) (UniProt Q6AWC2)", "log2 fold change": -0.234}, {"target": "AAGAB (peptide sequence: AATLPHEQR, peptide start residue: 276) (UniProt Q6PD74)", "log2 fold change": 0.0798}, {"target": "CORO6 (peptide sequence: KCEPIIMTVPR, peptide start residue: 342) (UniProt Q6QEF8)", "log2 fold change": 0.108}, {"target": "KLHDC10 (peptide sequence: FIQSCPIIR, peptide start residue: 69) (UniProt Q6PID8)", "log2 fold change": 0.231}, {"target": "ATG16L1 (peptide sequence: SVSSFPVPQDNVDTHPGSGKEVR, peptide start residue: 287) (UniProt Q676U5)", "log2 fold change": -0.397}, {"target": "UniProt Q68EA5 (peptide sequence: YLSHHVK, peptide start residue: 210)", "log2 fold change": 0.554}, {"target": "SLC27A4 (peptide sequence: ILSFVYPIR, peptide start residue: 409) (UniProt Q6P1M0)", "log2 fold change": -0.116}, {"target": "ZCCHC8 (peptide sequence: RFEEQQKNDVEK, peptide start residue: 122) (UniProt Q6NZY4)", "log2 fold change": -0.559}, {"target": "CRTC3 (peptide sequence: RQPPVSPLTLSPGPEAHQGFSR, peptide start residue: 386) (UniProt Q6UUV7)", "log2 fold change": -0.381}, {"target": "AFTPH (peptide sequence: ERIQLEEIECAVLNDR, peptide start residue: 241) (UniProt Q6ULP2)", "log2 fold change": -1.08}, {"target": "UniProt Q6PH85 (peptide sequence: LDEATDSFFQNPDSLHR, peptide start residue: 37)", "log2 fold change": -0.172}, {"target": "MAP1S (peptide sequence: SLYDELR, peptide start residue: 97) (UniProt Q66K74)", "log2 fold change": -0.432}, {"target": "UniProt Q6RVD6 (peptide sequence: GGPGGLK, peptide start residue: 51)", "log2 fold change": -0.0125}, {"target": "UniProt Q6IE81 (peptide sequence: NPLEPFASLEQNREEAHR, peptide start residue: 395)", "log2 fold change": -0.621}, {"target": "PDE12 (peptide sequence: YIMAGFPVCPK, peptide start residue: 172) (UniProt Q6L8Q7)", "log2 fold change": 0.434}, {"target": "TRAF7 (peptide sequence: LSEDLMEFR, peptide start residue: 347) (UniProt Q6Q0C0)", "log2 fold change": -0.362}, {"target": "UniProt Q69YN4 (peptide sequence: FFTPPASK, peptide start residue: 1706)", "log2 fold change": -0.162}, {"target": "ELMSAN1 (peptide sequence: QRPRPEPLIIPTK, peptide start residue: 602) (UniProt Q6PJG2)", "log2 fold change": -0.132}, {"target": "RPGRIP1L (peptide sequence: LHDENILLK, peptide start residue: 57) (UniProt Q68CZ1)", "log2 fold change": 0.439}, {"target": "CASC4 (peptide sequence: FFDENESPVDPQHGSK, peptide start residue: 360) (UniProt Q6P4E1)", "log2 fold change": 0.0716}, {"target": "RCSD1 (peptide sequence: VKSSPLIEK, peptide start residue: 80) (UniProt Q6JBY9)", "log2 fold change": -0.165}, {"target": "WDR74 (peptide sequence: HFSTEDGIFQGQR, peptide start residue: 69) (UniProt Q6RFH5)", "log2 fold change": 0.152}, {"target": "PMF1 (peptide sequence: ELVAVLREPE, peptide start residue: 196) (UniProt Q6P1K2)", "log2 fold change": 0.0646}, {"target": "UniProt Q6NZI2 (peptide sequence: SLKESEALPEK, peptide start residue: 171)", "log2 fold change": 0.386}, {"target": "UniProt Q659A1 (peptide sequence: ERNQIFHEVPLK, peptide start residue: 337)", "log2 fold change": 0.591}, {"target": "UniProt Q6AHZ1 (peptide sequence: AEEGPNASSGFMK, peptide start residue: 404)", "log2 fold change": 0.185}, {"target": "ARHGAP11A (peptide sequence: SSFSQQSTCVVTNLSKPRPMR, peptide start residue: 761) (UniProt Q6P4F7)", "log2 fold change": -0.455}, {"target": "TYW3 (peptide sequence: ETMTNLHPK, peptide start residue: 199) (UniProt Q6IPR3)", "log2 fold change": -0.123}, {"target": "SPTY2D1 (peptide sequence: QATESHTSQGTDR, peptide start residue: 109) (UniProt Q68D10)", "log2 fold change": 0.93}, {"target": "MED27 (peptide sequence: TLEAFHDTCRQ, peptide start residue: 301) (UniProt Q6P2C8)", "log2 fold change": -0.62}, {"target": "CASC1 (peptide sequence: LLQEEEER, peptide start residue: 377) (UniProt Q6TDU7)", "log2 fold change": -0.0204}, {"target": "AMMECR1L (peptide sequence: LAAGCCGVK, peptide start residue: 14) (UniProt Q6DCA0)", "log2 fold change": -0.0679}, {"target": "SMYD5 (peptide sequence: LTGKPGQVLPHPELCTVR, peptide start residue: 87) (UniProt Q6GMV2)", "log2 fold change": 0.181}, {"target": "FBXL19 (peptide sequence: KGPLPAGPPPEDVPGPPK, peptide start residue: 196) (UniProt Q6PCT2)", "log2 fold change": -0.463}, {"target": "LMBRD2 (peptide sequence: ESNFSDVNTNR, peptide start residue: 622) (UniProt Q68DH5)", "log2 fold change": -0.0103}, {"target": "UniProt Q5VW32 (peptide sequence: ADHTLSSLEPAYSAK, peptide start residue: 223)", "log2 fold change": -0.199}]}]}
